In patent publication US20230279115A1:
These are yes or no findings as the source states them, for the method shown. Tags and fused reporters may be left off the sequences shown.

The chains behind the UniProt entries cited, without tags or fusion partners. Residues count along the entry.
UniProt Q15116, residues 25-167: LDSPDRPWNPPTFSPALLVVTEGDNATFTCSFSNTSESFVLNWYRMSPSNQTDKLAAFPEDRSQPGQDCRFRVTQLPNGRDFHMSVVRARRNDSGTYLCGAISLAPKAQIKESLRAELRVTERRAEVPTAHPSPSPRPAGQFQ

Target: recombinant human PD-1 (human) (UniProt Q15116)
Assay: condition: 1 µg/mL (from paragraph 85 for chF2; not printed on the sheet); ELISA on coated recombinant human protein (1 µg/mL), detection with HRP-anti-human IgG

binding: no binding
B1: KN035 (fusion protein of the KN035 variable region and Fc) (Fc fusion, not shown: a dimerising Fc or GST)
chain: QVQLVESGGGLVQPGGSLRLSCAASGKMSSRRCMAWFRQAPGKERERVAKLLTTSGSTYLADSVKGRFTISRDNSKNTVYLQMNSLRAEDTAVYYCAADSFEDPTCTLVTSSGAFQYWGQGTLVTVSS
